# According to publication PMC5625047:
# Results are given in words; binding and its absence hold for the method and conditions named. A result given as binding can be weak or reduced; the word gives no strength.
# B1: MKK3 (endogenous, mouse heart) (protein, UniProt O09110 1-347)
# chain: MESPAASPPASLPQTKGKSKRKKDLRISCVSKPPVSNPTPPRNLDSRTFITIGDRNFEVEADDLVTISELGRGAYGVVEKVRHAQSGTIMAVKRIRATVNTQEQKRLLMDLDINMRTVDCFYTVTFYGALFREGDVWICMELMDTSLDKFYRKVLEKNMKIPEDILGEIAVSIVRALEHLHSKLSVIHRDVKPSNVLINKEGHVKMCDFGISGYLVDSVAKTMDAGCKPYMAPERINPELNQKGYNVKSDVWSLGITMIEMAILRFPYESWGTPFQQLKQVVEEPSPQLPADQFSPEFVDFTSQCLRKNPAERMSYLELMEHPFFTLHKTKKTDIAAFVKEILGEDS
# Target: p38 MAPK (endogenous, mouse heart) (mouse (endogenous in C57BL/6 hearts))
# Assay: non-reducing SDS-PAGE with immunoblot; mouse hearts, Langendorff perfusion, vehicle then 100 μM H2O2 for 10 min; homogenate in SDS buffer with 100 μM maleimide
binder,measurement,value
B1,binding,binds
